In paper PMC10435456:
These are yes or no findings as the source states them, for the method shown. Binding calls can cover weak binding; strength is not graded here.

The chains behind the UniProt entries cited, without tags or fusion partners. Where a name states a change or a piece, a line headed by the entry shows the natural chain unless it says otherwise.
UniProt L7N686: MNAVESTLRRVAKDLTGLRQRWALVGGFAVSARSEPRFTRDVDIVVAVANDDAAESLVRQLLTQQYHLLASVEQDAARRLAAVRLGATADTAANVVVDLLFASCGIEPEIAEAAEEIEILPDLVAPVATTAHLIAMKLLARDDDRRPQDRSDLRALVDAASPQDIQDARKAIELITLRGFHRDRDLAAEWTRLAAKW
UniProt I6X8G2: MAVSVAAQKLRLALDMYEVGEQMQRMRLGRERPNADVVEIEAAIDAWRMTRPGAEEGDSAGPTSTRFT

Key:
[1] = molecular target: MenT1 toxin (Rv0078A) of Mycobacterium tuberculosis (Mycobacterium tuberculosis H37Rv) (UniProt L7N686); assay: SEC; both purified
[2] = molecular target: MenT1 toxin (Rv0078A) of Mycobacterium tuberculosis (Mycobacterium tuberculosis H37Rv) (UniProt L7N686); assay: crystal structure; MenAT1 complex (MenT1α:MenA1:MenT1β), 1.44 Å; crystal from 0.2 M sodium fluoride, 0.1 M Bis-Tris propane pH 6.5, 20% w/v PEG 3350; both purified

MenA1 antitoxin (Rv0078B) of Mycobacterium tuberculosis (from UniProt I6X8G2)
binding [1]: binds | binding [2]: binds
